According to US20140179595A1:
These are yes or no findings as the source states them, for the method shown. Some results given as binding are weak or reduced against the parent protein; the word gives no strength.

Biological target: low density lipoprotein receptor (LDLR) (UniProt P01130)
Test: competition with DiI-LDL on HEK293T cells, flow cytometry

binding: binds
B1: human apoE dual-domain peptide hEP (peptide)
peptide: EELRVRLASHLRKLRKRLLRDADDLQKRLAVYEEQAQQIRLQAEAFQARLKSWFEPLVEDM
